Reference: PubChem BioAssay AID1508600 (Functional Genomics Laboratory (NCATS/FGL), 2020)
The campaign covered roughly 53,000 sequences. About 3,700 (7%) were called active.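 The calls were made as follows: active = gene knockdowns whose robust z-score for IL-1 alpha signal is at least 2 or at most -2, so actives lie on both sides; inactive = the rest.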 The list shows a part of the results.

Experiment: Components of the Cytosolic LPS Sensing Pathway: Gene Identification via Genome-wide siRNA Screen;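 also: robust z of the log signal after scaling to non-targeting control siRNA wells of the plate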
Conditions: RAW264.7 macrophages, IL-1a HTRF, actives lie on both sides, screened at 100 nM (by protocol), cells primed 5 h with Pam3CSK4 first
Summary of the method: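 Three distinct siRNAs per gene were tested singly at 100 nM in RAW264.7 macrophages. Following Pam3CSK4 priming and 24 hour LipidA transfection, IL-1a secretion was read by HTRF.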

Sequence | z-score
CCAUACGUUUUUCAGAAUGTT against Epb41l4a | inactive: 0.0893
GGGUAAAACAGAGGAAGAATT against Snrnp27 | inactive: 1.04
GGGAGAGUAAUGUGGACAUTT against Slc37a2 | active: 3.86
GGAACGAUUGGUUUUUUUUTT against Ms4a6c | inactive: 0.0512
GCUACAAGAUGUGGUCAACTT against Cdc42ep1 | inactive: 1.86
GGUUAUCGCAUUUGGUGGUTT against Olfr1511 | inactive: 0.104
GGCAUACUUGUACCGCUAUTT against Mmp9 | inactive: -0.35
GGAGGAUCCUGAACGAAAATT against Med19 | inactive: -0.863
GGCUUUUUGUGUAUUUGUUTT against Evi5 | inactive: -1.43
GGAAAAAUCACCAGUAAAATT against Cc2d2a | inactive: -1.2
GCAACAAUUCUAACAGCUGTT against Lhfpl5 | inactive: -0.138
GCGACAGAGGAAGCUUGUUTT against Mak16 | inactive: 0.634
CCAAGGAGACUCAUCAACATT against Crebbp | inactive: -0.804
GGUUUCUUCGAAUUACUGUTT against Ugt1a7c | inactive: 1.02
GCCAGGAUAUGGAUAUGCATT against 1520401A03Rik | active: -2.06
GCACUAAUCAACUUAAGUCTT against Ikzf5 | inactive: 0.566
GGAAUACGCAGUGAAAAUCTT against Phkg1 | inactive: -0.103
GGGUCCUUUUUAGCUGUAGTT against Vdac1 | active: 3.83
GGUGUUUGGCGAUAAUAAGTT against Zdhhc15 | inactive: -0.237
GCUGGAUAUUUCUAAGUAUTT against A26c3 | inactive: 1.9
GGAUGUGUCUCUGGAACAUTT against Cdc37l1 | inactive: -0.272
GGAAAUACAGAACACAAGCTT against Plekhm3 | active: 2.04

Sequence | z-score
GCGUAUCUUCAACGUGGGATT against Khnyn | inactive: -0.614
GGACCAGCCAUACCUGUGATT against Ndufa7 | inactive: -1.93
CCCUCUUGAAAUUAGUGUGTT against Dusp14 | inactive: 0.405
GGACUGUAUCUCCAUCAAATT against Rep15 | inactive: 2
GGACAUAGAAUCUUUACAGTT against Brwd1 | inactive: -0.212
GCGCAGUCAGACCAUAUAUTT against Fbxl5 | inactive: -0.874
CCGCCGUUCCUUUUGUUUCTT against Sox21 | inactive: 1.3
CCUCUUAAAACAAUACCAATT against Olr1 | inactive: 1.37
CCGAGUUCGGGUAUCUUGGTT against Grwd1 | inactive: -0.885
CGGUAUGUAAAUCUAUCACTT against Kctd4 | inactive: -0.455
GCUGCUCAGAGUUAUGAUGTT against 1700088E04Rik | inactive: -0.459
GCCGUGAACUUGCCAUCAATT against Banf2 | inactive: -0.247
GGGCCAAUUCAACUUUGAUTT against Uck2 | inactive: 0.931
GGCAUGGUGUUUUACGUAUTT against Fgd6 | inactive: -0.792
CCGGAGUUGUACAAUGAUATT against Blk | inactive: 0.958
GGAUCGGACUCUUUUAUAUTT against Psmd6 | inactive: -0.578
GGUCGUAAGACAGUUGUCCTT against 4932438H23Rik | inactive: -0.715
GGAUACUUCUCCAUUUUCUTT against C1ra | inactive: 0.198
GGAACUAGAAACUUCUUUUTT against Tmem74 | inactive: 0.416
CGUUUUUCUCUAACUUACATT against Ldlrad3 | active: 2.6
GGAUUACCGGCAGCUGGAATT against Dnm1 | active: 2.24
CGUUCCAGGUGAAGAUCCUTT against Tbx10 | inactive: 0.203

Sequence | z-score
GCUCAAUUGUGGAGCAGUCTT against Cd5l | inactive: -0.247
GCUAAAACGAACCACUAUGTT against Ephx3 | inactive: 1.61
CCUAGCAGACUUUAACCAATT against Ptk2 | inactive: -0.882
GGUGGCGGGAGAUGUUUUUTT against Pex6 | inactive: 0.85
CCCAGUCCUAAGGUUCAGATT against Armcx2 | inactive: -1.2
GGUACUUGAAGCUCCUUGGTT against Fcmr | inactive: -0.186
GGACAAGUUUCGGAGAAUGTT against Kirrel3 | inactive: -0.0761
GCUAUAUAAAAGAACCGAUTT against Daxx | inactive: 1.29
GCUAUCCCUUAAAUGCUCATT against Pamr1 | inactive: -0.102
GGGUUCAGGAGAACUAACUTT against Tmem40 | inactive: -1.92
GCCAUUCGAGUUUUAUAUGTT against Nlrp4f | inactive: -1.53
GGAGAAAAGGAAGUAAACUTT against Aldh9a1 | inactive: 0.741
GCCACCUUAACAUUAGCCUTT against Osgin1 | inactive: -0.795
GGAAUAGACAUCAAUGUUATT against Slf1 | inactive: -0.832
CCCUAACUCAGACUCCAUGTT against Pianp | inactive: -0.0392
GCCAAUGAGACUAAAUACGTT against Abca17 | inactive: 0.856
CCUACCAGUACCUAGAACUTT against Slc5a5 | inactive: 1.51
CGACUAUAGACUCUUGAAUTT against 1810037I17Rik | inactive: 0.573
CCAAACCUGAGACCUAUUGTT against Lamb3 | inactive: -0.922
CGGACACAUUGACUGAAUATT against Adgrl1 | inactive: -1.45
GGAGAUCCUUCAUUACCUGTT against Psap | inactive: -1.34
GGAGGAAGAAGUAGUACUUTT against Nup43 | inactive: 0.921

2 entries from above, as comma-separated lines.
Sequence,z-score
GGGUUCAGGAGAACUAACUTT against Tmem40,inactive: -1.92
CCCUAACUCAGACUCCAUGTT against Pianp,inactive: -0.0392

Continued:

Sequence | z-score
GCUCAAGUCGAAAAGUUGCTT against Gpc4 | inactive: -0.645
CGAAGUGAGAAUUGAAUUUTT against Zp2 | inactive: 1.51
GGAUUCAUUUUGUGAGUGATT against Pax8 | inactive: 0.35
CGCUGAUGAACUCUUUUCUTT against Ces1g | inactive: -0.342
CCAUUGCAUGCAAUGACUATT against S100a10 | inactive: -1.25
GGCCUUGAGGCUAUUCAUGTT against Stk16 | inactive: 1.2
GGAGAAGCAUUAUUUUGAATT against Myb | inactive: 0.798
GGACAUUUUCUACGUUGAATT against Phax | inactive: 0.974
GGUGCGUUAUGGGUUUGUUTT against Ppm1b | inactive: 1.53
GGUUUGUGGUGGUAUUUAATT against Man2a2 | active: 2.47
GCUGUUUUGGUAGAUUUUGTT against Map3k8 | inactive: 0.0466
GGGUUUCAAUGGCACAAUUTT against Kif3b | active: 2.12
CCCACUGUGUUUGUAAAGATT against Adgre4 | inactive: -0.727
GGUCUUCGAUGUCUUGUAGTT against Kdm2a | inactive: -0.49
UUAUGACACGCUCAAACUATT against Khdc1a | inactive: 0.47
CGAAGUGGUUAACCACCUCTT against Spaca9 | inactive: -1.01
CGCAUAAUGGAUGAGAGGATT against Mef2a | inactive: 0.871
GCUAUUGUAGUGGUUACUGTT against Vmn2r57 | active: 2.21
CCCAAGAGUGUUUGAGAACTT against Zbtb43 | inactive: 0.213
GGUCGAUUGAUAUACAAAATT against Gdf6 | inactive: 0.834
GGACAACUUCAACAGCACUTT against Rab13 | inactive: -1.31
GGAUCAACGGAUUUUAGAATT against Gcfc2 | inactive: 1.21

Sequence | z-score
CGAGUAUGACACCUUCGACTT against Adgrg3 | inactive: -0.424
CCUGCUCCAACGUAAUGUCTT against Ldhc | inactive: -0.65
AGAGCAAAAACUCGAGCACTT against Sox15 | inactive: -0.253
CCAACACCCAAUAAUAGCGTT against Elfn2 | inactive: -0.231
GCUUGUAAAUGGAACGACATT against 0610012G03Rik | inactive: -0.69
GGGUUCAUUUCUCAAAAUUTT against Nol7 | inactive: -0.831
GGAAAGUAACUAAAGGCAATT against Arl8b | inactive: 0.274
GGCAUAAUGUGAAAAAAUGTT against P2ry10 | inactive: -0.511
CCAAUCUUCACAAUGGCUCTT against Smpd1 | inactive: -0.367
GGAAAAUCCAGAGGCUACGTT against Creg1 | inactive: -0.186
GGUGACGAGACAUUUAUUATT against Elovl5 | inactive: -1.11
GCAAACCCACACGAAGCAATT against BC043934 | inactive: 1.04
GGUUAAAUAAUCCACAAGCTT against Fam243 | inactive: 1.21
CCUGUCAAUGAAACCAAGCTT against Cox19 | inactive: 0.678
GGUCUUCCGAUGAACAAUCTT against Etfdh | inactive: 1.23
GGAACAGAAAUUCUAUGAGTT against Ip6k3 | inactive: 0.097
GCCAGGUUGACAAUGGUUCTT against Ttf2 | inactive: 1.57
GCAACUAUCCACUCUCUGCTT against Emg1 | inactive: 0.977
GGGCGAAAGCCAAUUUUAGTT against Ddx3y | inactive: 0.216

Some values from above:
z-score, GCCAGGUUGACAAUGGUUCTT against Ttf2 is entered as inactive: 1.57
z-score, CCUGUCAAUGAAACCAAGCTT against Cox19 is entered as inactive: 0.678
z-score, GGGUUCAUUUCUCAAAAUUTT against Nol7 is entered as inactive: -0.831
z-score, CGAGUAUGACACCUUCGACTT against Adgrg3 is entered as inactive: -0.424
z-score, GGGCGAAAGCCAAUUUUAGTT against Ddx3y is entered as inactive: 0.216
